Reference: patent US11292821B2, “Peptides and combination of peptides for use in immunotherapy against lung cancer, including NSCLC, SCLC and other cancers” (Immatics Biotechnologies GmbH, priority 2017, dated 2022)

Tested on: tumor tissue samples
Experiment: Identification and relative quantitation of HLA-presented tumor associated peptides by LC-MS (presentation profile)
Set-up: species or system human
Details: for Peptide Presentation on cancer entities: cancer entities on which the tumor-associated peptide was found presented (HLA ligandome LC-MS), abbreviations per table footnote
[1] = HLA-B*07 cancer tissues vs HLA-B*07 normal samples (N=13 normal, N=36 tumor), FIGS. 1I-1J

| Substance | Peptide Presentation on cancer entities | further results |
| --- | --- | --- |
| 63 (VMPSDSFFF; listed as Homo sapiens) [compound 63] | MEL, NHL, OC, UEC | – |
| 289 (VPENHSVAL; listed as Homo sapiens) [compound 289] | UEC | – |
| 395 (ASEASRLAHY; listed as Homo sapiens) [compound 395] | GBM, GC, NHL, PRCA, UEC | – |
| 318 (EAAIRSVEL; listed as Homo sapiens) [compound 318] | GBM, MEL, NHL, OC | – |
| 54 (LLIKLLQTF; listed as Homo sapiens) [compound 54] | AML, GBM, MEL, OC, PRCA, RCC | – |
| 483 (EENDQSTHKW; listed as Homo sapiens) [compound 483] | MEL, NHL, OC, RCC, UEC | – |
| 285 (FPSFLTNSL; listed as Homo sapiens) [compound 285] | AML | – |
| 115 (MLLETQDALYV; listed as Homo sapiens) [compound 115] | HNSCC | – |
| 446 (VTAQVVGTERY; listed as Homo sapiens) [compound 446] | GC, MEL | – |
| 251 (VPRSSGQTV; listed as Homo sapiens) [compound 251] | BRCA, GBM, UEC | – |
| 375 (VYSDLHAFYY; listed as Homo sapiens) [compound 375] | GBM, GC, HCC, MEL, PRCA | – |
| 411 (GTVYEDLRY; listed as Homo sapiens) [compound 411] | GBM, GC, HCC, MEL, NHL, OC, OSCAR | – |
| 170 (RSDDTAVYY; listed as Homo sapiens) [compound 170] | CLL, GC, HCC, NHL, PRCA, UEC | – |
| 129 (VLYDKDAVYV; listed as Homo sapiens) [compound 129] | AML, CLL, CRC, HNSCC, NHL, OC, UBC, UEC | – |
| SEQ ID NO.: 291 (SPQRLRGLL; listed as Homo sapiens) | – | over-presentation of peptide in cancer tissues compared to normal samples [1]: over-presentation |
| 142 (EVAEPSVLFDLY; listed as Homo sapiens) [compound 142] | GC, MEL, NHL, OC, UEC | – |
| 131 (LLKEFVQRV; listed as Homo sapiens) [compound 131] | BRCA, CRC, HCC, HNSCC, OC, OSCAR | – |
| 24 (MYPDLSELLM; listed as Homo sapiens) [compound 24] | AML, GBM, OC, UEC | – |
| 282 (MPQIETRVIL; listed as Homo sapiens) [compound 282] | UEC | – |
| 480 (GEVSGLTKDF; listed as Homo sapiens) [compound 480] | MEL, NHL, OC | – |
| 456 (SMFTAILKK; listed as Homo sapiens) [compound 456] | AML, MEL, NHL, OC, UEC | – |
| 122 (ALLEMFPEITV; listed as Homo sapiens) [compound 122] | BRCA, OC, PRCA | – |
| 59 (KYSTTFFMV; listed as Homo sapiens) [compound 59] | GBM | – |
| 441 (TLDSALNAASYY; listed as Homo sapiens) [compound 441] | GBM, GC, MEL, NHL, PRCA, RCC | – |
| 44 (AYLSAVGTF; listed as Homo sapiens) [compound 44] | AML, GC, MEL | – |

| Substance | Peptide Presentation on cancer entities | further results |
| --- | --- | --- |
| 396 (ASEFGNHYLY; listed as Homo sapiens) [compound 396] | GBM, GC, MEL, UEC | – |
| SEQ ID NO.: 475 (RPHKPGLYL; listed as Homo sapiens) | – | over-presentation of peptide in cancer tissues compared to normal samples [1]: over-presentation |
| 306 (ILKVKVGL; listed as Homo sapiens) [compound 306] | MEL, OC | – |
| 96 (HLVGGLHTV; listed as Homo sapiens) [compound 96] | AML, BRCA, CRC, GC, MEL, OC, PRCA | – |
| 38 (KYTNWKAFL; listed as Homo sapiens) [compound 38] | AML, HCC | – |
| 166 (NTQITDIGRY; listed as Homo sapiens) [compound 166] | MEL | – |
| 97 (VLALVNSTV; listed as Homo sapiens) [compound 97] | CLL | – |
| 412 (ILDEVIMGY; listed as Homo sapiens) [compound 412] | GBM, GC, MEL, NHL, OC, OSCAR | – |
| 471 (KPRPDVTNEL; listed as Homo sapiens) [compound 471] | NHL | – |
| 161 (LVDDGTHGQY; listed as Homo sapiens) [compound 161] | GBM, GC, MEL | – |
| 271 (MPLPWSLALP; listed as Homo sapiens) [compound 271] | MEL | – |
| 435 (QTDDTWRTEY; listed as Homo sapiens) [compound 435] | GBM, GC, MEL, NHL, PRCA | – |
| 22 (TQPGDWTLF; listed as Homo sapiens) [compound 22] | MEL | – |
| 6 (KYKDYFPVI; listed as Homo sapiens) [compound 6] | HCC | – |
| SEQ ID No. 11 (YYSKSVGFMQW; listed as Homo sapiens) | – | presentation on various cancer entities (cancer entities on which the peptide is presented (Table 8)): melanoma, ovarian cancer and uterine cancer |
| 90 (FLLMHPSI; listed as Homo sapiens) [compound 90] | CLL, HCC, RCC | – |
| 155 (LLDPNPHMY; listed as Homo sapiens) [compound 155] | PRCA | – |
| SEQ ID NO.: 129 (VLYDKDAVYV; listed as Homo sapiens) | – | over-presentation of peptide in cancer tissues compared to normal samples (HLA-A*02 cancer tissues vs HLA-A*02 normal samples (N=469 normal, N=528 tumor), FIGS. 1C-1D): over-presentation |
| 91 (FALPGLLHA; listed as Homo sapiens) [compound 91] | GC, HCC, NHL, OSCAR, RCC | – |
| 217 (RILNQILYY; listed as Homo sapiens) [compound 217] | AML, GBM, GC, HCC, MEL, NHL, PRCA, UEC | – |
| 146 (GLNTGSALSY; listed as Homo sapiens) [compound 146] | GC, OC | – |
| 426 (NLDQATRVAY; listed as Homo sapiens) [compound 426] | NHL | – |
| 78 (TWFPKTPMLF; listed as Homo sapiens) [compound 78] | AML, GBM, GC, HCC, MEL, UEC | – |
| 377 (VYVGAVNRI; listed as Homo sapiens) [compound 377] | GC, HCC, PRCA | – |
| 458 (GIADFVLKY; listed as Homo sapiens) [compound 458] | AML, BRCA, GBM, MEL, NHL, UEC | – |

| Substance | Peptide Presentation on cancer entities | further results |
| --- | --- | --- |
| 137 (ATSKFMEFY; listed as Homo sapiens) [compound 137] | GBM, MEL, OC, PRCA, UEC | – |
| 190 (VTDGINPLIDRY; listed as Homo sapiens) [compound 190] | MEL | – |
| 290 (APYRPPDISL; listed as Homo sapiens) [compound 290] | BRCA | – |
| 98 (LQSSGLTLLL; listed as Homo sapiens) [compound 98] | GBM, OC, PRCA | – |
| 281 (RPRAPVTPA; listed as Homo sapiens) [compound 281] | GBM | – |
| 328 (FEYDFLLQRI; listed as Homo sapiens) [compound 328] | UEC | – |
| 403 (ELDSKVEVLTY; listed as Homo sapiens) [compound 403] | GBM, GC, MEL, OC, PRCA | – |
| 110 (LLADFQALL; listed as Homo sapiens) [compound 110] | RCC | – |
| 87 (TLYPYQISQL; listed as Homo sapiens) [compound 87] | HCC, OSCAR | – |
| 114 (ILDERQVLL; listed as Homo sapiens) [compound 114] | AML, BRCA, CRC, GBC, GC, HCC, HNSCC, MEL, NHL, OC, OSCAR, PACA, UBC, UEC | – |
| 55 (RWMDQRLVF; listed as Homo sapiens) [compound 55] | GC, HCC, MEL, UEC | – |
| 374 (DEVNFLVY; listed as Homo sapiens) [compound 374] | CCC, GBC, GBM, NHL, OC, PRCA | – |
| 191 (VTDGSLYEGVAY; listed as Homo sapiens) [compound 191] | GC, MEL, UEC | – |
| 106 (FIIDTTYPAYV; listed as Homo sapiens) [compound 106] | CRC, OC, OSCAR | – |
| 415 (LLDPRSYHTY; listed as Homo sapiens) [compound 415] | GC, NHL | – |
| 187 (VADLHLYLY; listed as Homo sapiens) [compound 187] | GC, MEL, OC, PRCA, RCC | – |
| 406 (ETEQTKFWDY; listed as Homo sapiens) [compound 406] | GBM, GC, MEL, OC, RCC, UEC | – |
| 111 (ALCLLLHLL; listed as Homo sapiens) [compound 111] | AML, GBC, HCC, HNSCC, RCC | – |
| 126 (FLSTVTSV; listed as Homo sapiens) [compound 126] | CCC, GBM, HCC, HNSCC, MEL, NHL, OSCAR, PACA, RCC, UBC, UEC | – |
| 469 (YPENGVVQM; listed as Homo sapiens) [compound 469] | AML, OC | – |
| 424 (NLDEEKQLLY; listed as Homo sapiens) [compound 424] | MEL, PRCA | – |
| 107 (LLQGAIESV; listed as Homo sapiens) [compound 107] | BRCA, CLL, CRC, HNSCC, MEL, NHL, UBC, UEC | – |
| 372 (TEGIIMKDF; listed as Homo sapiens) [compound 372] | OC, PRCA, RCC, UEC | – |
| 413 (ISDRYYTALY; listed as Homo sapiens) [compound 413] | GBM, GC, PRCA, UEC | – |
